One sequence from PMC7883873, “Discovery of New Catalytic Topoisomerase II Inhibitors for Anticancer Therapeutics” (Frontiers in Oncology, 2021) can be followed below.

Amino acid sequences for entries named in this document (tags omitted). A change or cut given only in a name is not applied to a line headed by its entry. Residues count along the entry.
UniProt P11388, 431-1193: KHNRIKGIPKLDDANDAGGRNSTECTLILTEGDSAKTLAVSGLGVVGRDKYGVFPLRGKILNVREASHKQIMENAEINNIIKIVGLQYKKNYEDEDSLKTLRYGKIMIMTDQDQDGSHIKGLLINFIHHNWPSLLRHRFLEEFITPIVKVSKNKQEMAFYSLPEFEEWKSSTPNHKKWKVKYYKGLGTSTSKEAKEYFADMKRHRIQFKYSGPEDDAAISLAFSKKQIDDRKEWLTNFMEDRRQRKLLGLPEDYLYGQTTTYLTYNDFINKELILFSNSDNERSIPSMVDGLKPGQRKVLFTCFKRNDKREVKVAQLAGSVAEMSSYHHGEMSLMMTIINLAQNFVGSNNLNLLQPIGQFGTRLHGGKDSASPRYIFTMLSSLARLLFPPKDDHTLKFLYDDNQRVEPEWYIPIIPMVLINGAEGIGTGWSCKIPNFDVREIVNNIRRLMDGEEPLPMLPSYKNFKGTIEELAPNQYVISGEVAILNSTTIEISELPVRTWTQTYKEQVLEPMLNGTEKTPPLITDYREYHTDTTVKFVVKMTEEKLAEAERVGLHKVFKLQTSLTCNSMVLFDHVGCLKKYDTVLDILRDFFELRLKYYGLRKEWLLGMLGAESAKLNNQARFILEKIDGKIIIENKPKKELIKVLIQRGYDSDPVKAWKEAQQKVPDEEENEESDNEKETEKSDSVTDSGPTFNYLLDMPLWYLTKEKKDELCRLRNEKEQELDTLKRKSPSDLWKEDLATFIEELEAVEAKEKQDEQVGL
UniProt Q02880: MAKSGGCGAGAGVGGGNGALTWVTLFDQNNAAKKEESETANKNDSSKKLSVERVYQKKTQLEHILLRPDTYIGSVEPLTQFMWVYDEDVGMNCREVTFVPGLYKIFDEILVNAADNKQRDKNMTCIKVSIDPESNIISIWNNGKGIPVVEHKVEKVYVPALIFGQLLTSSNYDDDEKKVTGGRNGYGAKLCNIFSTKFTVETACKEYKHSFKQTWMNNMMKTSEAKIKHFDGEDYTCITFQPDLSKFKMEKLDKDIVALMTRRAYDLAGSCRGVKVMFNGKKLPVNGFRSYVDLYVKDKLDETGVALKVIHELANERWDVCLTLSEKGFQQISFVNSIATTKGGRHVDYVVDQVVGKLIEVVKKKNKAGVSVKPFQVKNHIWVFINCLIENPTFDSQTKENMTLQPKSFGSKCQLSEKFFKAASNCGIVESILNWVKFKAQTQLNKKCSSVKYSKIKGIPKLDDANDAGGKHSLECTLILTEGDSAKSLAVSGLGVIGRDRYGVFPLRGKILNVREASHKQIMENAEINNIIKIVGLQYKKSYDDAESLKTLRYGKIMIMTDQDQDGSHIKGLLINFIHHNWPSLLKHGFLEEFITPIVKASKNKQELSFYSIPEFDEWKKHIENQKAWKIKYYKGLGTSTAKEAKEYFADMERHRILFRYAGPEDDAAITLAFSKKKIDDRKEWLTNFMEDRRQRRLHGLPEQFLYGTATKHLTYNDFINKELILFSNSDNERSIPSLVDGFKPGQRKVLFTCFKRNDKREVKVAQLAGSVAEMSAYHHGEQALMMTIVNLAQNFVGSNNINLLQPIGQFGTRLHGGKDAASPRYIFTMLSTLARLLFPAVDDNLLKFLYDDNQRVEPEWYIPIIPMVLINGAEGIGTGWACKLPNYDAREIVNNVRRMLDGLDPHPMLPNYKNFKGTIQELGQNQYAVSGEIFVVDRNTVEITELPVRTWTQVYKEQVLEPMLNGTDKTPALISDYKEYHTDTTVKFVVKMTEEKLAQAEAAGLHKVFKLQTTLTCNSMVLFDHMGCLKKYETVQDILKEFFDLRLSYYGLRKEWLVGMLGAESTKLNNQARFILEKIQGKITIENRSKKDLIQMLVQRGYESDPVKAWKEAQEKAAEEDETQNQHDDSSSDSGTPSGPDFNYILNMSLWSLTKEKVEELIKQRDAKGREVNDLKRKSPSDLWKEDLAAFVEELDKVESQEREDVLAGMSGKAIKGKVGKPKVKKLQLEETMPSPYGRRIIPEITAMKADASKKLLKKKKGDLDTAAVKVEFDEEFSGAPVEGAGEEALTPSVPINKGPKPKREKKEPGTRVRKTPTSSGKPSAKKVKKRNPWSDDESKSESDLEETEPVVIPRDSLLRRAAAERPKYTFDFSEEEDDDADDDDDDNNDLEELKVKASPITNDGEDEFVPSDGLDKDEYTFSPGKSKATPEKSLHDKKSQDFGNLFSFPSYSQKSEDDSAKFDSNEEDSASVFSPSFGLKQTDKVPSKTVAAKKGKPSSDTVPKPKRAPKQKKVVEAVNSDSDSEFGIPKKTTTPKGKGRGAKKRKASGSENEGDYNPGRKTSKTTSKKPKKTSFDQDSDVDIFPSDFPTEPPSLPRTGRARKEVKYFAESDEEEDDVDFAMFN

What all share (assay): EMSA
Background: In EMSA bound probe runs differently from free probe, usually more slowly.

Series [1] deals with TOP2A (431-1193) (Homo sapiens) (UniProt P11388). Conditions: 200 uM T60, shift abolished, dose dependent over 0-200 uM (Fig 4E); 20 mM HEPES-NaOH pH 7.4, 2 mM DTT, 3 mM MgCl2, 0.05% NP-40, protease inhibitors, 0.1 ug poly[dI:dC] in 20 ul, 30 min at 37 C; 4% native gel in 0.5x TBE; recombinant protein; residues 431-1193; label: IRDye700.
The target in series [2] is TOP2B full-length (Homo sapiens) (UniProt Q02880). To be noted: 200 uM T60, shift interrupted; 20 mM HEPES-NaOH pH 7.4, 2 mM DTT, 3 mM MgCl2, 0.05% NP-40, protease inhibitors, 0.1 ug poly[dI:dC] in 20 ul, 30 min at 37 C; 4% native gel in 0.5x TBE; commercial protein; label: IRDye700.
The target of series [3] is TOP2A full-length (Homo sapiens) (UniProt P11388). To be noted: 200 uM T60, shift interrupted; 20 mM HEPES-NaOH pH 7.4, 2 mM DTT, 3 mM MgCl2, 0.05% NP-40, protease inhibitors, 0.1 ug poly[dI:dC] in 20 ul, 30 min at 37 C; 4% native gel in 0.5x TBE; commercial protein; label: IRDye700.

For part of these data: Negatives hold for the conditions tested. For part of these data: Construct, isoform or probe ends are uncertain for at least one entry. For part of these data: A weaker result is weaker than the reference pair of the same experiment.

With “AGCCGAGCTGCAGCTCGGCT (double strand) [5ZRF]”, the values for the binding result in series [1], in series [2] and in series [3] were “no binding”, “binds more weakly” and “binds more weakly”, respectively.
